Results on five compounds are retold here after article PMC11623267, “Inhibitors of malaria parasite cyclic nucleotide phosphodiesterases block asexual blood-stage development and mosquito transmission” (Science Advances, 2024).

For data set [1], the system named is P. falciparum clinical isolates from Tororo and Busia Districts of Uganda. The data set is described as follows: Ex vivo 72-hour SYBR Green assay, Ugandan clinical isolates. The format is cell-based, Plasmodium falciparum. Conditions: curve fits. The source says: Clinical isolates were from the Tororo District of Uganda, located in the central-eastern part of the county near the Kenya border. Tororo and surrounding areas have high-intensity, year-round malaria transmission. […] Patients reporting use of antimalarial treatment within the previous 30 days or with evidence of an infection with other Plasmodium species were excluded. Informed consent was obtained from patients and/or primary care givers (depending on age); children aged 8 to 17 years provided assent. Two to 5 ml of blood was collected by venipuncture in a heparin tube. […]
Samples were delivered to the adjacent IDRC laboratory at Tororo District Hospital or transported by car from Masafu Hospital on the day of collection for storage of blood spots on filter paper (for isolation of nucleic acids) and initiation of ex vivo culture of malaria parasites. […] Fluorescence was quantified using a BMG Fluostar Optima plate reader at an excitation of 485 nm and an emission of 530 nm, and data were plotted using GraphPad Prism 7. […] For each isolate, a Z′ factor to assess assay quality was calculated from positive controls (eight drug-free wells) and negative controls (eight parasite-free, red cell control wells). […]

The next data set relates to HepG2 cells. The data set is described as follows: HepG2 cytotoxicity. The format is cell-based. The conditions noted are these: value in brackets after HepG2 EC50. The source says:
Table 1. Key activity data for the three main chemical subseries against ABS parasites, parasite fractions, and HepG2 cells. ND, not determined; ×/÷ is the geometric mean with geometric SD. | column: HepG2 EC50 (nM) (selectivity index)

For some assays here: The index is printed as in the source, without its formula.

Regarding `CCN(CC)CCCC(C)Nc1ccnc2cc(Cl)ccc12` (centres unmarked) [Chloroquine], the “H.S. (mean Hill slope)” value in data set [1] is recorded as 4.51. The same measure, in the same setting: the figure for `CCc1nc(N)nc(N)c1-c1ccc(Cl)cc1` [Pyrimethamine, reference compound] is 2.02. In the data set with HepG2 cells, `CCc1c2nc(-c3cc(C(=O)NC)cnc3OCC(C)C)[nH]c(=O)c2nn1CCOC` [SAL-0010031] had a HepG2 selectivity index of 143.

Consider `CNC(=O)c1cnc(OCC(C)C)c(-c2nc3c(C(C)C)n[nH]c3c(=O)[nH]2)c1` [SAL-0010301], for which, in the data set on HepG2 cells, the HepG2 selectivity index is on record as 277. Regarding `CCNC(=O)c1cnc(OCC(C)C)c(-c2nc3c(C(C)C)n[nH]c3c(=O)[nH]2)c1` [SAL-0010333], in the data set on HepG2 cells, the HepG2 selectivity index came out at 727.
